From US20070134665 come the findings set out here.

By UniProt entry, the sequences of proteins in these tests, tags left out. Residues count along the entry.
UniProt P03023, 1-338: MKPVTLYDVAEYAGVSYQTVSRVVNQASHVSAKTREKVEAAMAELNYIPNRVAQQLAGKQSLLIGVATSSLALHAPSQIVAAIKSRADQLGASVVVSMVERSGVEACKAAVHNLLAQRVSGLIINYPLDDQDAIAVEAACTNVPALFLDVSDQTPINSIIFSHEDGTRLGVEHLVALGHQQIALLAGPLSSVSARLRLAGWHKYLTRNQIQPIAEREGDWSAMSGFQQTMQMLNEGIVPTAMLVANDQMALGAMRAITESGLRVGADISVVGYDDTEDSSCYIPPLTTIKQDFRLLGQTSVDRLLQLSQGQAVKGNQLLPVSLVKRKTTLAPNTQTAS

Results from cells or extracts need not show a direct contact. For some of these results: No signal at the amounts used counts as a negative.

The target in data set [1] is LacI(1-338)-SC35 fusion (UniProt P03023). In words: binding assay. The note with it: protein in cells.
Data set [2] addresses LacI(1-338) (UniProt P03023). The data set can be described thus: pull-down. The note with it: biotinylated O-Sym on streptavidin sepharose; 250 mM KCl, 4 C; protein in a lysate after overexpression; label: 5' Cy3 or biotin.
Data set [3] addresses LacI(1-338)-SC35 fusion (lysate) (UniProt P03023). The data set can be described thus: pull-down. The note with it: biotinylated O-Sym on streptavidin sepharose; 250 mM KCl, 20 mM Hepes pH 7.5, 4 C; mock beads as control; protein in a lysate after overexpression; label: 5' Cy3 or biotin.

As for “GCGTGTGCCAGAATTGTGAGCGCTCACAATTTCTTGAATCT / AGATTCAAGAAATTGTGAGCGCTCACAATTCTGGCTCACGC [O-Sym]”, the binding result in data set [1] (in situ fluorescence in fixed cells, 50-100 nM Cy3 O-Sym, 150 mM KCl, herring sperm DNA, 37 C, label: 5' Cy3 or biotin) is recorded as “binds”; in data set [2] it was “binds”; in data set [3], “binds”.

For “TCGAGTTTACTCCCTATCAGTGATAGAGAACGTATGTCGCC / GGCGACATACGTTCTCTATCACTGATAGGGAGTAAACTCGT [Tet-O]”, the binding result in data set [1] (multiplex detection in co-transfected cells, no co-localisation of signals, label: 5' Cy5 or biotin) is listed as “no binding”.
